Patent US20070128627A1
No constants are given. Whether binding was seen depends on the method and setting. For some assays here: Binding seen in cells or lysates may run through a third protein. Some entries that bind do so weakly or less than the wild type. For some assays here: Where a sequence is shown, tags or fusion partners need not be part of it.

Protein sequences, listed by entry. Tags and fused reporters are not part of them. Lines headed by an entry give the natural chain unless they say otherwise; changes in a name come on top. Residues count along the entry.
UniProt P06536: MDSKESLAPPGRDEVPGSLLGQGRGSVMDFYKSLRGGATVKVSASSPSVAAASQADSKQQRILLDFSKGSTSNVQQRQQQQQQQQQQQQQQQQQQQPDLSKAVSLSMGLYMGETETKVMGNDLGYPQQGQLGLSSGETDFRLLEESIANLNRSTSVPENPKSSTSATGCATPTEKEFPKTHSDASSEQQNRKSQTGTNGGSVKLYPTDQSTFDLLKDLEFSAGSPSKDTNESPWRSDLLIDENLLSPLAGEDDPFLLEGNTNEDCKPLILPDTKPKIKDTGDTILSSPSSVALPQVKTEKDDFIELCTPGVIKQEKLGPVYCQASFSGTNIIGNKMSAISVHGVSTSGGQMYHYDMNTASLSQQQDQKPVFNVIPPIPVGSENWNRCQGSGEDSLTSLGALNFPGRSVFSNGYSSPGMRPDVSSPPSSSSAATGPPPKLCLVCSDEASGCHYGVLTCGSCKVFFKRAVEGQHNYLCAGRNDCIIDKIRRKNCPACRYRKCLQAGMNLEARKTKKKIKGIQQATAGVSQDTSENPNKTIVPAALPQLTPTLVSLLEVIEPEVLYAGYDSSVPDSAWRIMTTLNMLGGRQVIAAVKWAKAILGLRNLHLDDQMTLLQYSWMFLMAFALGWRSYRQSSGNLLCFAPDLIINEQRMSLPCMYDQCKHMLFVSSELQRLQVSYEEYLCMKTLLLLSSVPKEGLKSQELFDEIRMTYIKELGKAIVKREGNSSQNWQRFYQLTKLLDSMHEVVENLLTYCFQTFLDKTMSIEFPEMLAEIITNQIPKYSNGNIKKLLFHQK
UniProt Q15596: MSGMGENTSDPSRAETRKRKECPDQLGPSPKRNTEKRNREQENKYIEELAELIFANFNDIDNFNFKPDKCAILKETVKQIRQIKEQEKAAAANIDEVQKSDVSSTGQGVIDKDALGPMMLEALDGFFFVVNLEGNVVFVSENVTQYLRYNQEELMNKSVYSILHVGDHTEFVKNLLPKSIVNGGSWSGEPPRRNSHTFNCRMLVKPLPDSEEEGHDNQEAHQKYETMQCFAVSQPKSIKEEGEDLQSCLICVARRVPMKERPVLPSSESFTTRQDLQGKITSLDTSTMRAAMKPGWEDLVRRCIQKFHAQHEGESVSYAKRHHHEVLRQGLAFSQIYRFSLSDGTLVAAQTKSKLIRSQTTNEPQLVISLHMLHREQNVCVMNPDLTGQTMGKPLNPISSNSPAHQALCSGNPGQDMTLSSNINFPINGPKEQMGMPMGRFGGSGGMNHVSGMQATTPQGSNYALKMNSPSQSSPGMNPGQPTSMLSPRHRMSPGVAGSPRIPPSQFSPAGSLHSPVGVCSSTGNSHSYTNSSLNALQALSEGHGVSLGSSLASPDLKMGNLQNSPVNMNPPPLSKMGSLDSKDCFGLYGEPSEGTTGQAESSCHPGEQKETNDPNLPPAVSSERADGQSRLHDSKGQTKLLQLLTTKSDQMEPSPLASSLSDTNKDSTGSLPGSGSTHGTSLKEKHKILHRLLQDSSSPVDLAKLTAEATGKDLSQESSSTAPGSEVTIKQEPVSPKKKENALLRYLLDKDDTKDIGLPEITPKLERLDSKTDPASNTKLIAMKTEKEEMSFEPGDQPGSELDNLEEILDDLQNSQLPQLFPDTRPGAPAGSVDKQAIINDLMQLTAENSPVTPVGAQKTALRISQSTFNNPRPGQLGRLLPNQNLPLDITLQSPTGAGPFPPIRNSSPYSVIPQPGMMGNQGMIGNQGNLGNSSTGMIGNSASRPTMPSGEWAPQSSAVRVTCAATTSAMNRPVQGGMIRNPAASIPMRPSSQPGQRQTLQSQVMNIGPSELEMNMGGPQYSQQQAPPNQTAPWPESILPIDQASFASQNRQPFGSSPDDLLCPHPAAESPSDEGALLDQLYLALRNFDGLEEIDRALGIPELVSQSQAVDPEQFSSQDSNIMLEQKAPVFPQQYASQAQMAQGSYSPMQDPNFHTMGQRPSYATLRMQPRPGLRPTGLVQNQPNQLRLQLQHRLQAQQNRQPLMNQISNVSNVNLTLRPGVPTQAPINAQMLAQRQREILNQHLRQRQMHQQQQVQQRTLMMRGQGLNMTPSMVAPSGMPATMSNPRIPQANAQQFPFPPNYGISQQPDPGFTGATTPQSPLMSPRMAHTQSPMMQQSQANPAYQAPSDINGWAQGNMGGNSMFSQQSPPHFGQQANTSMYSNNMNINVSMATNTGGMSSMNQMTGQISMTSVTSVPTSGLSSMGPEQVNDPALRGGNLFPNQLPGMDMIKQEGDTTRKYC
UniProt Q61026, residues 5-1462: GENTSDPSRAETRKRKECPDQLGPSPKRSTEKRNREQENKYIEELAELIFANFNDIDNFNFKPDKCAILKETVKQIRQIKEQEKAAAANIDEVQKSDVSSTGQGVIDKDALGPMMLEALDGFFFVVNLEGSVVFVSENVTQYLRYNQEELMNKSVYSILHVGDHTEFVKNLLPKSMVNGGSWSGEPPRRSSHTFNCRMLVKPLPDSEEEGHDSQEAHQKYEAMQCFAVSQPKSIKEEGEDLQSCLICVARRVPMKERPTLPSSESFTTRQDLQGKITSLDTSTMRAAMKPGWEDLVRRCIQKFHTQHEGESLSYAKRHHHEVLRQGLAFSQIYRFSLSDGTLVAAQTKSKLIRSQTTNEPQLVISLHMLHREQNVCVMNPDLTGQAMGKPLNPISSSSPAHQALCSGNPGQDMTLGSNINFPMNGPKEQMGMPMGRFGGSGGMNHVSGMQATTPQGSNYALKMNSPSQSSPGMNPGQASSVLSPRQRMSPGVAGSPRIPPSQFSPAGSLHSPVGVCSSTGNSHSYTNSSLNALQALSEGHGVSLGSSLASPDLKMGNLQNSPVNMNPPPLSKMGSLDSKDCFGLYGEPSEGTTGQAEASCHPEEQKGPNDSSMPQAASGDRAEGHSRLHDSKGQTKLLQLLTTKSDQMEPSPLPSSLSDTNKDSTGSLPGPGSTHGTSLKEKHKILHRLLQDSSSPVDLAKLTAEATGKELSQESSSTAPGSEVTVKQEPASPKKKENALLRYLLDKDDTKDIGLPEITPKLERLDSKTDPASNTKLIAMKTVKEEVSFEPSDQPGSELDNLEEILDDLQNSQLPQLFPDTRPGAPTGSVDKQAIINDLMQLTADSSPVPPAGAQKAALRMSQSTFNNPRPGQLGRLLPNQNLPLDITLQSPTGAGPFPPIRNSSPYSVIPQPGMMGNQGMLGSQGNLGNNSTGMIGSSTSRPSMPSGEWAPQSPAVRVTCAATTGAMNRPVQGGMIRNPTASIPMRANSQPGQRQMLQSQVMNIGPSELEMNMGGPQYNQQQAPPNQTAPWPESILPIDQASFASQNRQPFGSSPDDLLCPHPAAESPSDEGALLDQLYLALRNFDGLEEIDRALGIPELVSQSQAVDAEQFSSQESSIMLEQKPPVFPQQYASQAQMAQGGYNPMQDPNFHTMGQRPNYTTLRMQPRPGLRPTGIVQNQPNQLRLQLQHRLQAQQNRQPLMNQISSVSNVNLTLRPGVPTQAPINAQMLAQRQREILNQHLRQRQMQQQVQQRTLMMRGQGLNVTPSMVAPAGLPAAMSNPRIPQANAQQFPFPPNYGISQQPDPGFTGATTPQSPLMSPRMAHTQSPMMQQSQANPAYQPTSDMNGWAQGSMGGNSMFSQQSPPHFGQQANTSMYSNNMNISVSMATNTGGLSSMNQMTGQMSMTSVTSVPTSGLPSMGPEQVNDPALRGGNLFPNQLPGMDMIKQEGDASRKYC

Legend:
[1] = molecular target: wild type glucocorticoid receptor (GR), full length (UniProt P06536); assay: GST pulldown of [35S]methionine-labeled in vitro translated GR, autoradiography (FIG. 7B)
GAL/TIF2.4 (human) = assay: mammalian two-hybrid in CV-1 cells, pFRLuc reporter (FIG. 2B)
GST/TIF2.4 (human) = GST/TIF2.4 (human) (UniProt Q15596); assay: GST pulldown of [35S]methionine-labeled in vitro translated STAMP fragment, autoradiography (FIG. 7A)
[2] = molecular target: wild type glucocorticoid receptor (GR), full length (UniProt P06536); assay: anti-Flag co-immunoprecipitation from Cos-7 cells cotransfected with Flag/STAMP, HA/GRIP1 and GR, ±1 µM Dex; Western blot (FIG. 7C)
HA/GRIP1 (mouse) = HA/GRIP1 (mouse) (UniProt Q61026); assay: anti-Flag co-immunoprecipitation from Cos-7 cells cotransfected with Flag/STAMP, HA/GRIP1 and GR; Western blot (FIG. 7C)

B1: GST/STAMP(956C) (protein, not shown: a dimerising Fc or GST)
chain: LPRCRSGSHTIGPFSSFQSAAHIYSQKLSRPSSAKAGSCYLNKHHSGIAKTQKEGEDASLYSKRYNQSMVTAELQRLAEKQAARQYSPSSHINLLTQQVTNLNLATGIINRSSASAPPTLRPIISPSGPTWSTQSDPQAPENHSSSPGSRSLQTGGFAWEGEVENNVYSQATGVVPQHKYHPTAGSYQLQFALQQLEQQKLQSRQLLDQSRARHQAIFGSQTLPNSNLWTMNNGAGCRISSATASGQKPTTLPQKVVPPPSSCASLVPKPPPNHEQVLRRATSQKASKGSSAEGQLNGLQSSLNPAASVPITSSTDPAHTKI
binding [1]: binds

B2: VP16/6-6CL1 (protein)
chain: ENTPKENSMKVREWNNKGGHCCKLETQELEPKFNLMQILQDNGNLSKMQARIAFSAYLQHVQIRLMKDSGGQTFSASWAAKEDEQMELVVRFLKRASNNLQHSLRMVLPSRRLALLERRRILAHQLGDFIIVYNKETEQMAEKKSKKKVEEEEEDGVNMENFQEFIRQASEAELEEVLTFYTQKNKSASVFLGTHSKISKNNNNYSDSGAKG
binding (GAL/TIF2.4 (human)): binds

B3: STAMP fragment of amino acids 623-834, in vitro translated (protein)
chain: B2 chain
modifications: [35S]methionine labeled
binding (GST/TIF2.4 (human)): binds

B4: Flag/STAMP (protein, not shown: small tags and cut ends)
chain: MARDLEETASSSEDEEVISQEDHPCIMWTGGCRRIPVLVFHADAILTKDNNIRVIGERYHLSYKIVRTDSRLVRSILTAHGFHEVHPSSTDYNLMWTGSHLKPFLLRTLSEAQKVNHFPRSYELTRKDRLYKNIIRMQHTHGFKVFHILPQTFLLPAEYAEFCNSYSKDRGPWIVKPVASSRGRGVYLINNPNQISLEENILVSRYINNPLLIDDFKFDVRLYVLVTSYDPLVIYLYEEGLARFATVRYDQGAKNIRNQFMHLTNYSVNKKSGDYVSCDDPEVEDYGNKWSMSAMLRYLKQEGRDTTALMAHVEDLIIKTIISAELAIATACKTFVPHRSSCFELYGFDVLIDSTLKPWLLEVNLSPSLACDAPLDLKIKASMISDMFTVVGFVCQDPAQRASTRPIYPTFESSRRNPFQKPQRCRPLSASDAEMKNLVGSAREKGPGKLGGSVLGLSMEEIKVLRRVKEENDRRGGFIRIFPTSETWEIYGSYLEHKTSMNYMLATRLFQDRMTADGAPELKIESLNSKAKLHAALYERKLLSLEVRKRRRRSSRLRAMRPKYPVITQPAEMNVKTETESEEEEEVALDNEDEEQEASQEESAGFLRENQAKYTPSLTALVENTPKENSMKVREWNNKGGHCCKLETQELEPKFNLMQILQDNGNLSKMQARIAFSAYLQHVQIRLMKDSGGQTFSASWAAKEDEQMELVVRFLKRASNNLQHSLRMVLPSRRLALLERRRILAHQLGDFIIVYNKETEQMAEKKSKKKVEEEEEDGVNMENFQEFIRQASEAELEEVLTFYTQKNKSASVFLGTHSKISKNNNNYSDSGAKGDHPETIMEEVKIKPPKQQQTTEIHSDKLSRFTTSAEKEAKLVYSNSSSGPTATLQKIPNTHLSSVTTSDLSPGPCHHSSLSQIPSAIPSMPHQPTILLNTVSASASPCLHPGAQNIPSPTGLPRCRSGSHTIGPFSSFQSAAHIYSQKLSRPSSAKAGSCYLNKHHSGIAKTQKEGEDASLYSKRYNQSMVTAELQRLAEKQAARQYSPSSHINLLTQQVTNLNLATGIINRSSASAPPTLRPIISPSGPTWSTQSDPQAPENHSSSPGSRSLQTGGFAWEGEVENNVYSQATGVVPQHKYHPTAGSYQLQFALQQLEQQKLQSRQLLDQSRARHQAIFGSQTLPNSNLWTMNNGAGCRISSATASGQKPTTLPQKVVPPPSSCASLVPKPPPNHEQVLRRATSQKASKGSSAEGQLNGLQSSLNPAASVPITSSTDPAHTKI
binding [2]: binds | binding (HA/GRIP1 (mouse)): binds
